The text below walks through data of paper PMC7819943, “Rice protein-binding microarrays: a tool to detect cis-acting elements near promoter regions in rice”.

Sequences of proteins named here, by UniProt entry; tags and fusion partners are left off.
UniProt Q0JBA9, entry or part of it: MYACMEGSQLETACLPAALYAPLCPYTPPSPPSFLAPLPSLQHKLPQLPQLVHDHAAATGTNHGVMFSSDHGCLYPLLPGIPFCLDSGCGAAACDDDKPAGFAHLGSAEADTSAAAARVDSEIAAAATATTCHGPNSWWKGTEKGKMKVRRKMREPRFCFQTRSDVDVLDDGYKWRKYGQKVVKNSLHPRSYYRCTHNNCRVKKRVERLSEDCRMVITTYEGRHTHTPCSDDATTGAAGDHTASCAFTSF

The other results are listed elsewhere or left out.

The experiment deals with OsWRKY34 (Oryza sativa, UniProt Q0JBA9 1-250). Nature of the experiment: protein-binding microarray (RPBM); PBS, 2% BSA, 51.3 ng/ul salmon testes DNA, 50 uM zinc acetate, 200 nM TF, 25 C, 1 h; high values mean tight binding. To be noted: protein: recombinant; tags: N-terminal polyhistidine and DsRed monomer fusion (pET32a); label: CyDye5-dUTP incorporated in the synthesized complementary strand; 3' TTTTT single-stranded linker to array surface; dsDNA, one strand shown. The method in brief:
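An Axon 4000B scanner gave the binding signal as per-feature fluorescence intensity in arbitrary units. This followed washing of a custom Agilent array that had been incubated for 1 h at 25 °C with 200 nM protein in PBS, 2% BSA, salmon testes DNA and 50 µM zinc acetate. The proteins were transcription factors fused at the N-terminus to polyhistidine and DsRed, expressed in E. coli BL21-CodonPlus and purified on Ni–NTA.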
Consider “AAGCCGCATATGGAGTTTTTTTTGGTGTTTCAGTTTCAAGCGGAGTCACCTAGTGCAG”, for which the binding signal is 8500 fluorescence intensity (a.u.).
Regarding “CACCGCCGCCGCCCAACTCCAATTCTTCCACCGCTTGTGTCGGAGTCACCTAGTGCAG”, the binding signal was 9590 fluorescence intensity (a.u.).
The result for “CGATCCTTCCAAACCCTAGCTTAGTCGTTGACTCCTGCGCCGGAGTCACCTAGTGCAG” reads 8990 fluorescence intensity (a.u.); that for “GGGTAAGACATTTAGCAGTCAGTTTCAACCAGTTTTAGCGCGGAGTCACCTAGTGCAG”, 8990 fluorescence intensity (a.u.); that for “ATAGGGGTGGTCATATTTTGTGGTTGAGGTGAAATTTCCACGGAGTCACCTAGTGCAG”, 14300 fluorescence intensity (a.u.).
The result for “CCACCACCCGCTACTGCCATCTGGGACCCACATCCGCGGACGGAGTCACCTAGTGCAG” reads 9020 fluorescence intensity (a.u.); that for “GCGAGGGAGGTATTAGTTGTATTTGATTGTTTGTTTTCTTCGGAGTCACCTAGTGCAG”, 13700 fluorescence intensity (a.u.); that for “AAACGACGGTACGACGCGTACTATTTTTCTTCTTCCAACCCGGAGTCACCTAGTGCAG”, 9170 fluorescence intensity (a.u.).
With “AAACAATCCGACGGCCCGTATTCCGTGGTCCACGGCCACGCGGAGTCACCTAGTGCAG” the figure was 9020 fluorescence intensity (a.u.); with “TTCCACTAGGAGATAAGCTCTCTATTAATTTGCTACCCTTCGGAGTCACCTAGTGCAG”, 8440 fluorescence intensity (a.u.).
Regarding “GTCATCATTAATTCATTGCTGTCATTGTTTGCAAGATATTCGGAGTCACCTAGTGCAG”, the binding signal was 8800 fluorescence intensity (a.u.).
Turning to “TTTTATGATGGTATTTGGTTGGCGAGCTGAATTCCTGTTCCGGAGTCACCTAGTGCAG”, the binding signal was 8080 fluorescence intensity (a.u.).
Consider “CGCCGTTGACTTTTTTAAATATGTTTGACCGTTCGTCTTACGGAGTCACCTAGTGCAG”, for which the binding signal is 39400 fluorescence intensity (a.u.).
The result for “CATTCATTCCCCACGCCTCTACCACACGGCCTTTATAATACGGAGTCACCTAGTGCAG” reads 10200 fluorescence intensity (a.u.).
With “ATATCGATCGCCATGTATCTTTTTTTTTTTATGGTTCAGACGGAGTCACCTAGTGCAG” the figure was 8470 fluorescence intensity (a.u.).
With “GCTTGTTAAATCCTCTGGTGCGTCCTTTTTCTGTTGTCAACGGAGTCACCTAGTGCAG” the figure was 9950 fluorescence intensity (a.u.); with “CCACTCCCAATATTATCCACCATCCGTCTCCATCCAACACCGGAGTCACCTAGTGCAG”, 8670 fluorescence intensity (a.u.); with “AGAGATGAGCAGCATACTTTGACTTTTAATTTATTCTATGCGGAGTCACCTAGTGCAG”, 8440 fluorescence intensity (a.u.).
“ACCTTGTCGAAGCTGGAGCAACTCGTTGACCAAAGGGAGTCGGAGTCACCTAGTGCAG”: the binding signal is 11200 fluorescence intensity (a.u.).
The result for “GCCGCTTCTTCCGCGCATGCGTCGTGATCTCACGTCCTCTCGGAGTCACCTAGTGCAG” reads 8870 fluorescence intensity (a.u.).
Regarding “CATCTTGTTGAACCCGATATGTTCTTCAATTTCTTATCTTCGGAGTCACCTAGTGCAG”, the binding signal is 10800 fluorescence intensity (a.u.).
The result for “CGCGGCGCCTCCTCCTCCTCTCCCAATTCCGCCGCCAATTCGGAGTCACCTAGTGCAG” reads 8790 fluorescence intensity (a.u.); that for “CGCCATCGATGCGTGACCACCGAGCTCGCCTCGTCCACACCGGAGTCACCTAGTGCAG”, 8580 fluorescence intensity (a.u.).
With “CCGTGGTGTGACAAAATTGCCCCTGTGACCATTTAGTTGACGGAGTCACCTAGTGCAG” the figure was 8160 fluorescence intensity (a.u.).
Turning to “ACCCACATGTCATTGACTCATATGGGTCATACATGTCATTCGGAGTCACCTAGTGCAG”, the binding signal is 10000 fluorescence intensity (a.u.).
On to “GTCCGTAAGATCACTCACTGGCCACTTCATCTTCTTGCTCCGGAGTCACCTAGTGCAG”, for which the binding signal is 12500 fluorescence intensity (a.u.).
The result for “TTCATTATTGGATGCCAGCTCTTAGATACCTTGTGGTTTACGGAGTCACCTAGTGCAG” reads 8250 fluorescence intensity (a.u.); that for “ATTCATATGCCTAGATTATAGTGTGTTTAGTAATATCCTTCGGAGTCACCTAGTGCAG”, 8450 fluorescence intensity (a.u.).
For the sequence “CTTACCTATTTACGATTTTTTTCCATGTATTTATGTATTTCGGAGTCACCTAGTGCAG”, the binding signal was 9360 fluorescence intensity (a.u.).
With “TTATCATATTTTTGCTTCCAGTGTCACGTGACCGCCACATCGGAGTCACCTAGTGCAG” the figure was 10000 fluorescence intensity (a.u.); with “ACATCTCATCACTACTTACTTCCTATGCTTTTCACAATCACGGAGTCACCTAGTGCAG”, 12900 fluorescence intensity (a.u.); with “CTGGTCCATGATTCCTTTCACCACTTGCCCTTTGTCTTGTCGGAGTCACCTAGTGCAG”, 8950 fluorescence intensity (a.u.).
“AAACCGCCAAGAGACCTAGTTTGCACTGATTTTGTAACTTCGGAGTCACCTAGTGCAG”: the binding signal was 8380 fluorescence intensity (a.u.).
The result for “CTTTGTGTCTCTCACTGACCGACTCGTGCTGCCCTTTATACGGAGTCACCTAGTGCAG” reads 8240 fluorescence intensity (a.u.); that for “CCACACCCGCTGCCGCCCACCTCGCCGTCTCCGCGCTTGACGGAGTCACCTAGTGCAG”, 12300 fluorescence intensity (a.u.).
For the sequence “TCTCGCCTCCGCCGCTCCCGAATTCCCCACCGCGCCACCGCGGAGTCACCTAGTGCAG”, the binding signal is 9060 fluorescence intensity (a.u.).
Take “TCAAGATCCAATCCGCTCAAATACTTTGGCCTTGCTATCTCGGAGTCACCTAGTGCAG”: the binding signal was 8160 fluorescence intensity (a.u.).
Turning to “TAAATACCACTCGCCATGCACACTCCAAGCACACACAAAGCGGAGTCACCTAGTGCAG”, the binding signal was 8400 fluorescence intensity (a.u.).
In the case of “CTCTCTTCAGCTTGCCATATCTCTGTTGTTGACTTGCAAGCGGAGTCACCTAGTGCAG”, the binding signal is 10800 fluorescence intensity (a.u.).
With “TCGCGCCACCGCCACTGATTCGCCGGAGAGTTGCTGTTCCCGGAGTCACCTAGTGCAG” the figure was 8360 fluorescence intensity (a.u.); with “TATGGGGTCTTCCGGCTAGCTCTATAAGGTGGTGGGTTACCGGAGTCACCTAGTGCAG”, 11700 fluorescence intensity (a.u.); with “ATCGCCTTGAATCGTCGCCTCTTCATGCCCAGTCCGCCAACGGAGTCACCTAGTGCAG”, 12700 fluorescence intensity (a.u.).
